Reference: US6384040B1, “Condensed 4-thioxopyrimidine derivatives as microbicides” (Syngenta Crop Protection, Inc., priority 1998, dated 2002)
Some of these results come from one statement about several compounds together.

Legend:
Format in all cases: in vivo
Erysiphe graminis [1] = experiment: Action against Erysiphe graminis on barley, systemic action; conditions: barley plants, soil drench 0.002% a.i. based on the volume of the soil, infected 48 hours later, evaluation 12 days after infection
Uncinula necator = experiment: Action against Uncinula necator on vines; conditions: vine cuttings, spray, concentration of 0.2 ppm, evaluation ca. 14 days after infection
Method: Example B-3: Action Against Uncinula necator on Vines
5 week old vine cuttings are sprayed with a spray mixture (200 ppm a.i.) prepared from a wettable powder formulation of the test compound. The plants are infected 24 hours later by conidias from strongly infested vine leafs that are shaken off over the test plants. The plants are then incubated at 26° C. and 60% relative humidity. The evaluation of the fungal infestation is made ca. 14 days after infection.

Erysiphe graminis [2] = experiment: Action against Erysiphe graminis on barley, residual-protective action; conditions: evaluation 12 days after infection; for control activity: barley plants sprayed with 0.02% a.i., infected 3 to 4 hours later; for control of the fungal infection: barley plants, spray, concentration of 0.2 ppm

Structure (SMILES) | control of the fungal infection (Erysiphe graminis [1]) | control of the fungal infection (Uncinula necator) | control activity (Erysiphe graminis [2]) | control of the fungal infection (Erysiphe graminis [2])
CCCOc1nc2sc(Br)cc2c(=S)n1CCC [Compound 2, 6-bromo-2-propoxy-3-propyl-4-thioxo-thieno[2,3-d]pyrimidine] | over 80% | over 80% | complete control activity | over 80%
CCCCn1c(OCCC)nc2sc(Cl)cc2c1=S [Compound 3, 3-butyl-6-chloro-2-propoxy-4-thioxo-thieno[2,3-d]pyrimidine] | over 80% | over 80% | complete control activity | over 80%
CCCCn1c(OCCC)nc2sc(Br)cc2c1=S [Compound 4, 6-bromo-3-butyl-2-propoxy-4-thioxo-thieno[2,3-d]pyrimidine] | over 80% | over 80% | complete control activity | over 80%
CCCOc1nc2sc(Cl)cc2c(=S)n1CCC [Compound 1, 6-Chloro-2-propoxy-3-propyl-4-thioxo-thieno[2,3-d]pyrimidine] | over 80% | over 80% | complete control activity | over 80%
